In experiment [1] the target is isolated J-domain of DnaJB8, JD_(1–82) (human) (UniProt Q8NHS0). In words: SEC-MALS; Superdex 200 Increase 10/300 in 1× PBS with 1 mM TCEP, 0.5 mL/min; 5.1, 5.0 and 6.6 mg/mL loaded for DnaJB8F→S, JD and CTD; both purified. A general note: SEC sorts molecules by how far they enter the pores of the column.
The target is the same in experiment [2]. Kind of experiment: cross-linking; single recombinant proteins (100 μM) in 1× PBS, 37 °C, 30 min, ADH/DMTMM or DSS; SDS-PAGE and XL–MS; both purified.

Protein sequences, listed by entry. Tags and fused reporters are not part of them. Residues count along the entry.
UniProt Q8NHS0, residues 1-82: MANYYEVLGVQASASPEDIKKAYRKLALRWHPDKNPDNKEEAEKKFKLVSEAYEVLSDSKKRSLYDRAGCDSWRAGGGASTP

These are yes or no findings as the source states them, for the method shown.

For “isolated J-domain of DnaJB8, JD_(1–82) (from UniProt Q8NHS0 1-82) (domain or fragment)”, the binding result in experiment [1] is recorded as “no binding (tested: 5.0 mg/mL)”; in experiment [2], “no binding (tested: 100 μM)”.

Values taken from PMC7878476.
